# Primary screen of a compound library

From ChEMBL document CHEMBL3988442, “University of Dundee, Small-Polar-MMV Screening Library” (2021).

T. brucei: 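Whole-parasite assay of Trypanosoma brucei over 72 hours; the read-out is not stated. Concentration: 30 µM. Higher reads as stronger inhibition (inferred: compounds with an IC50 in retests scored well above the rest). Values scatter widely below zero; nearly all retest evidence comes from the higher of the two concentrations used. Size under these conditions: about 64,000 compounds, about 940 of them at 50% or above in at least one test.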
Toxoplasma: 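Assay of Toxoplasma gondii numbers, read through their beta-galactosidase reporter with a colour substrate. Compounds at 10 µM. The record gives no direction; the compounds picked for IC50 retests had high values, so higher reads as fewer parasites. Of about 67,000 compounds tested this way, about 260 (0.38%) reached 50% or more in at least one test.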

The filed quantity is “Percent Effect” (%).
The controls that fix the scale are not given in the record; negative values are as filed.
This is an unselected part of the compounds tested.
A dash means the value is not listed here; it may have been measured.

structure,T. brucei,Toxoplasma
c1cnnc(NCC2CN(Cc3ccon3)CCO2)c1 (stereo not drawn),-14.49%,1.049%
CC(C)[C@H](NC(=O)N1CCN(c2ccc(Cl)cc2)CC1)C(=O)NC1CC1,-23.38%,1.979%
Cc1cc(OCC(=O)N2CCCC2c2noc(C)n2)no1 (stereo not drawn),15.62%,-4.206%
Cc1ncc(CN(C)C(=O)Nc2cccc(CN3CCOC3=O)c2)s1,-13.89%,17.14%
[H][C@@]12CCCO[C@]1([H])[C@H](NS(C)(=O)=O)CN(Cc1ccccc1)C2,5.253%,2.535%
CCN1CCCC(c2c(-c3ccccc3)ncn2CC(N)=O)C1 (stereo not drawn),-27.34%,4.642%
CN(C)CCNC(=O)C1Cc2nc(-c3ccccc3)sc2N1CC1CC1.O=C(O)C(F)(F)F (stereo not drawn),23.06%,-4.698%
CC(C)(CNC1CCCN(Cc2ccccn2)C1)CN1CCOCC1 (stereo not drawn),6.806%,-1.14%
CC(NC(=O)CN1CCN(c2ccncc2Cl)CC1)c1ccco1 (stereo not drawn),-,11.11%
CC(C)(C)c1cnc(CN2CCCS(=O)(=O)CC2)o1,-16.59%,17.18%
CCOCc1ncn2c1CN(S(=O)(=O)c1ccc(C)cc1)CC2,-23.45%,-6.329%
Cc1cccc(N2CCN(CCNC(=O)C(C)n3cncn3)CC2)c1 (stereo not drawn),27.77%,-0.9416%
CSc1ccc(C2SCC(=O)Nc3c2c(=O)[nH]n3C2CCOCC2)cc1 (stereo not drawn),-29.29%,-7.805%
[H][C@]12CC[C@]([H])(CN(S(C)(=O)=O)C1)N(C/C=C/c1ccc(F)cc1)C2,16.51%,-8.167%
Cc1ccc(-c2nc(CN3CCCCC3Cn3cncn3)no2)cc1 (stereo not drawn),-10.6%,-8.434%
Cc1nc(NC(=O)c2c3c(nn2C2CCS(=O)(=O)C2)CCC3)sc1C (stereo not drawn),0.04471%,-8.339%
COc1ccc(S(=O)(=O)NC(=O)c2c(C)noc2C(C)C)cc1C,-16.69%,1.908%
Cc1cc(C)cc(NCCC(=O)NC2CCCCC2)c1,-4.707%,18.29%
CCOc1ccc(Cl)c(C(=O)N2CCN(C(=O)c3ccoc3C)CC2)n1,1.137%,4.87%
COc1cccc(NC(=O)CN2CCN(S(C)(=O)=O)CC2)c1,-13.03%,-5.072%
O=C(O)C(F)(F)F.[H][C@@]12CCN(c3ncc(F)cn3)[C@]1([H])CC[C@H](C(=O)NCc1ccco1)O2,-7.643%,4.578%
CC(O)CN(C)c1cc(C(F)(F)F)nc(-c2cccnc2)n1 (stereo not drawn),14.71%,1.163%
Cl.c1cncc(CNc2cncc(C3CCCN3)n2)c1 (stereo not drawn),-3.878%,-3.944%
CC(C)NC(=O)N(Cc1cc(O)nc2ccccc12)C(C)C,-50.64%,8.33%
CCC(=O)N1Cc2nccn2CC(CN(C)Cc2cccnc2)C1.O=C(O)C(F)(F)F.O=C(O)C(F)(F)F (stereo not drawn),3.591%,-0.8319%
O=C(NCCCn1cccn1)C1(c2ccccc2)CCOCC1,-22.94%,7.071%
Cc1nc(CN2CCCN(c3nccs3)CC2)no1,-,11.62%
O=C(c1cccc(CN2CCCC2)c1)N1CCCC(n2cncn2)C1 (stereo not drawn),-32.93%,-3.389%
Cc1oc(C)c(C(=O)N2CCN(Cc3cscn3)CC2)c1C,-,-26.26%
Cc1ccc(S(=O)(=O)N2CCN(CCCn3ccnc3)CC2)cc1,2.062%,-4.464%
CSCC[C@@H](CO)NC(=O)c1ccc2nc(NS(C)(=O)=O)sc2c1,-74.06%,-
CC(=O)N1CCC(N2CC[C@H](c3nc4cc(F)ccc4o3)C2)CC1,-8.908%,-3.049%
NC(=O)c1cnc2n1CCN(C(=O)c1ccc(-c3cc[nH]n3)cc1)C2,-27.99%,1.647%
CCNC(=O)CCC(=O)N1CCC(Oc2cc(C)ccc2C)CC1,-27.28%,15.57%
Cc1cc2nc(C(C)C)cc(NC(C)c3nncn3C)n2n1 (stereo not drawn),-14.86%,14.95%
O=c1c(-c2ccnc(NC3CCCCC3)n2)cnc2sc(Cl)cn12,6.954%,10.1%
[H][C@]12C[C@H](C(=O)NCC3CC3)N(C)[C@@]1([H])CN(Cc1ccco1)C2,-21.44%,0.9504%
Cc1nn(C)c2c(NCCCn3cccn3)nc(C3CC3)nc12,2.686%,20.81%
Cc1ccc(O)c(CN(CCCn2ccnc2)Cc2ccc(C)s2)c1.O=C(O)CC(O)(CC(=O)O)C(=O)O,43.63%,4.169%
O=S(=O)(NCc1ccc(S(=O)(=O)N2CCCC2)s1)c1ccc(Cl)c(Cl)c1,-26.72%,6.344%
Cc1ccsc1C(=O)N1CCCC(c2[nH]ncc2S(C)(=O)=O)C1 (stereo not drawn),-15.29%,3.189%
CC(C)CCc1n[nH]c(C(=O)O)c1I,5.44%,-3.075%
CC(C)CN1CCC2(CCN(Cc3ccoc3)CC2)C1=O,1.469%,3.485%
CCc1cc(CN2CCCCC2c2ccc(F)cc2)on1 (stereo not drawn),-64.98%,-3.643%
CSCC(=O)N1CCN(CC(O)C(C)(C)C)CC1 (stereo not drawn),-66.9%,7.71%
CC(O)CN1CCN(C(=O)c2cccc(CC#N)c2)CC1 (stereo not drawn),-10.65%,1.588%
CCn1cnnc1CNC(=O)N1CCN(c2ccccc2O)CC1,-15.07%,-25.75%
O=C(c1cnc2ccc(F)cc2c1NCc1ccco1)N1CCCC1,9.339%,-2.596%
CC(C)Cc1noc(CNc2ccccc2CC(=O)N(C)C)n1,-16.96%,-25.35%
CCNC(=O)N1CCC2(CC1)CCn1c(-c3ccccc3)cnc12,-71.31%,0.266%
Cc1ccc(C(=O)N2CCCC(c3[nH]ncc3S(C)(=O)=O)C2)s1 (stereo not drawn),-30.56%,-3.993%
Cc1cc(NC(=O)CN2CCc3nn(C)c(=O)cc3C2)on1,-7.273%,-5.641%
CN(C)C(=O)NC1COC2(CCN(C(=O)c3ccc(Cl)cc3)CC2)C1 (stereo not drawn),-8.832%,-20.38%
Cc1nc2ccccc2nc1CN1CCCC1c1c(C)nn(C)c1C (stereo not drawn),16.46%,8.268%
[H][C@@]12CC(=O)N(Cc3csc(C)n3)[C@@]1([H])CCN2S(=O)(=O)CC,-26.89%,-21.27%
CC(=O)N[C@@H]1CN(C2CCN(c3ccccc3F)CC2)C[C@H]1C(C)C,16.38%,6.268%
CC(Cn1cccn1)NC(=O)CCc1ccc(S(N)(=O)=O)cc1 (stereo not drawn),1.673%,1.24%
O=C(O)C(F)(F)F.[H][C@@]12CCN(Cc3scnc3C)C[C@]1(C(=O)NC)CCO2,-18.85%,0%
CCN(CC)c1nc2ccsc2c(=O)n1CCC(=O)NCc1ccco1,-20.22%,8.395%
COc1cccc(S(=O)(=O)N2C[C@@H](N(C)C)[C@H](C(C)C)C2)c1,-34.95%,1.687%
COc1ccc(CNC[C@H]2Cn3ccnc3CO2)cn1,-2.681%,24.32%
CCc1ccsc1C(=O)N1CCN(CC(C)(C)O)CC1,-10.51%,-14.01%
CCN1CCCC1CNC(=O)Cc1c(-c2ccc(Cl)cc2)n[nH]c1C (stereo not drawn),6.622%,4.113%
O=C(CSCc1ccccn1)NCC1CCN(C2CC2)C1 (stereo not drawn),-35.3%,-25.19%
N#Cc1cccc(NC(=O)N2CCC3(CCC(=O)N(C4CC4)C3)CC2)c1,-21.66%,6.304%

Some entries from above, unchanged:

structure	T. brucei	Toxoplasma
CC(Cn1cccn1)NC(=O)CCc1ccc(S(N)(=O)=O)cc1 (stereo not drawn)	1.673%	1.24%
CCc1ccsc1C(=O)N1CCN(CC(C)(C)O)CC1	-10.51%	-14.01%
CN(C)CCNC(=O)C1Cc2nc(-c3ccccc3)sc2N1CC1CC1.O=C(O)C(F)(F)F (stereo not drawn)	23.06%	-4.698%
CC(=O)N[C@@H]1CN(C2CCN(c3ccccc3F)CC2)C[C@H]1C(C)C	16.38%	6.268%
CCNC(=O)N1CCC2(CC1)CCn1c(-c3ccccc3)cnc12	-71.31%	0.266%